In PMC4617701:
No constants are given. Whether binding was seen depends on the method and setting. In cells and extracts the contact can be indirect. These calls come from enrichment with a bait or labelling near it, and not all partners need be listed.

By UniProt entry, the sequences of proteins in these tests, tags left out. Where a name states a change or a piece, a line headed by the entry shows the natural chain unless it says otherwise. Chains listed by the source or under a name are the forms on record and can include a tag or linker.
Strep/FLAG-tagged (SF-TAP) NINL isoform B (Q9Y2I6, form named): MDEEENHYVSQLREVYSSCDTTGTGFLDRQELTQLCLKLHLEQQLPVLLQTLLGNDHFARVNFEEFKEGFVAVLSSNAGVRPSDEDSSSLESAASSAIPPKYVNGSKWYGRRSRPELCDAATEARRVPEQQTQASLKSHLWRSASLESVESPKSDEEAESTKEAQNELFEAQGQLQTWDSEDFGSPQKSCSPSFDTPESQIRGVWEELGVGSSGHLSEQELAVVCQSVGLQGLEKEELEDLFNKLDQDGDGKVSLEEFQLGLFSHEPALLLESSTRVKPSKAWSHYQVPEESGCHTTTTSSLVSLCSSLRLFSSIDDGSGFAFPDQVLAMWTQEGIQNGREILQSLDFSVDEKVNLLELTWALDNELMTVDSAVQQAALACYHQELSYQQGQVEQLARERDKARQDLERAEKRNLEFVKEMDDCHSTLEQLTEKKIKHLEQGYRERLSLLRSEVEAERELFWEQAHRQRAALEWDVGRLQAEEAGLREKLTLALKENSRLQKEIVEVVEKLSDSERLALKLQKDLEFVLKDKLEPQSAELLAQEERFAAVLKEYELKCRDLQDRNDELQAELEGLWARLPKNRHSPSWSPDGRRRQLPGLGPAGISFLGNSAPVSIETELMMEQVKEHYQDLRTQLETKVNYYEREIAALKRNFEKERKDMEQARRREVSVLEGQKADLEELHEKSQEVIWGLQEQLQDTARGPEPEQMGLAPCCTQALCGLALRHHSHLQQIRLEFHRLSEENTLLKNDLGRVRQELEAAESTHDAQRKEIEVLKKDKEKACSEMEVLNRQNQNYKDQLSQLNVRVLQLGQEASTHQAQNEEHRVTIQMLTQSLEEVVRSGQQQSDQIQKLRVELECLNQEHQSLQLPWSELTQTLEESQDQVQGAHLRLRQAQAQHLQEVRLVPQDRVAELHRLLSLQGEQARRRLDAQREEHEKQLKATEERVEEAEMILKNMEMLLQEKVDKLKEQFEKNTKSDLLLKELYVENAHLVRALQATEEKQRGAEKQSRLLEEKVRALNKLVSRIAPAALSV
UniProt P42025: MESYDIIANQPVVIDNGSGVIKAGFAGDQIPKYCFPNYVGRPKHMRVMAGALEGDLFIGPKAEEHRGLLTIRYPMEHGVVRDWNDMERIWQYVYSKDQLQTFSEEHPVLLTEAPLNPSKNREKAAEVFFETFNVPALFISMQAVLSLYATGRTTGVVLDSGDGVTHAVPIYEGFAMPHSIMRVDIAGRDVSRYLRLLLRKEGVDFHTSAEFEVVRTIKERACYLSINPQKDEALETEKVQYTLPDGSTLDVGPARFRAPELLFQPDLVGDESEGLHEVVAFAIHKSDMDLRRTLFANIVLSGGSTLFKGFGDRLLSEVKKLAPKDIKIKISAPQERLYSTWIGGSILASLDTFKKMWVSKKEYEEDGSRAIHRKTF
UniProt Q13561: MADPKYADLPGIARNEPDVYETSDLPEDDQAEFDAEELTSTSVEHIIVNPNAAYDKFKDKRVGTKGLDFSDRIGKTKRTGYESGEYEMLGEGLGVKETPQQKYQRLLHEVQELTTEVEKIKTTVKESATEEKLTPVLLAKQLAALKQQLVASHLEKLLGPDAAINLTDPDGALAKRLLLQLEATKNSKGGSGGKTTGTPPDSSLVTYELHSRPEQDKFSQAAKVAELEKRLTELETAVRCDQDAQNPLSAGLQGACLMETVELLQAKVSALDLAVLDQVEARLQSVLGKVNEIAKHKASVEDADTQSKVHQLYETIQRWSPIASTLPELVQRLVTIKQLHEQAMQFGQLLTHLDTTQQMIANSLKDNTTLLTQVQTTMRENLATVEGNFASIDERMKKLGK
UniProt Q14204: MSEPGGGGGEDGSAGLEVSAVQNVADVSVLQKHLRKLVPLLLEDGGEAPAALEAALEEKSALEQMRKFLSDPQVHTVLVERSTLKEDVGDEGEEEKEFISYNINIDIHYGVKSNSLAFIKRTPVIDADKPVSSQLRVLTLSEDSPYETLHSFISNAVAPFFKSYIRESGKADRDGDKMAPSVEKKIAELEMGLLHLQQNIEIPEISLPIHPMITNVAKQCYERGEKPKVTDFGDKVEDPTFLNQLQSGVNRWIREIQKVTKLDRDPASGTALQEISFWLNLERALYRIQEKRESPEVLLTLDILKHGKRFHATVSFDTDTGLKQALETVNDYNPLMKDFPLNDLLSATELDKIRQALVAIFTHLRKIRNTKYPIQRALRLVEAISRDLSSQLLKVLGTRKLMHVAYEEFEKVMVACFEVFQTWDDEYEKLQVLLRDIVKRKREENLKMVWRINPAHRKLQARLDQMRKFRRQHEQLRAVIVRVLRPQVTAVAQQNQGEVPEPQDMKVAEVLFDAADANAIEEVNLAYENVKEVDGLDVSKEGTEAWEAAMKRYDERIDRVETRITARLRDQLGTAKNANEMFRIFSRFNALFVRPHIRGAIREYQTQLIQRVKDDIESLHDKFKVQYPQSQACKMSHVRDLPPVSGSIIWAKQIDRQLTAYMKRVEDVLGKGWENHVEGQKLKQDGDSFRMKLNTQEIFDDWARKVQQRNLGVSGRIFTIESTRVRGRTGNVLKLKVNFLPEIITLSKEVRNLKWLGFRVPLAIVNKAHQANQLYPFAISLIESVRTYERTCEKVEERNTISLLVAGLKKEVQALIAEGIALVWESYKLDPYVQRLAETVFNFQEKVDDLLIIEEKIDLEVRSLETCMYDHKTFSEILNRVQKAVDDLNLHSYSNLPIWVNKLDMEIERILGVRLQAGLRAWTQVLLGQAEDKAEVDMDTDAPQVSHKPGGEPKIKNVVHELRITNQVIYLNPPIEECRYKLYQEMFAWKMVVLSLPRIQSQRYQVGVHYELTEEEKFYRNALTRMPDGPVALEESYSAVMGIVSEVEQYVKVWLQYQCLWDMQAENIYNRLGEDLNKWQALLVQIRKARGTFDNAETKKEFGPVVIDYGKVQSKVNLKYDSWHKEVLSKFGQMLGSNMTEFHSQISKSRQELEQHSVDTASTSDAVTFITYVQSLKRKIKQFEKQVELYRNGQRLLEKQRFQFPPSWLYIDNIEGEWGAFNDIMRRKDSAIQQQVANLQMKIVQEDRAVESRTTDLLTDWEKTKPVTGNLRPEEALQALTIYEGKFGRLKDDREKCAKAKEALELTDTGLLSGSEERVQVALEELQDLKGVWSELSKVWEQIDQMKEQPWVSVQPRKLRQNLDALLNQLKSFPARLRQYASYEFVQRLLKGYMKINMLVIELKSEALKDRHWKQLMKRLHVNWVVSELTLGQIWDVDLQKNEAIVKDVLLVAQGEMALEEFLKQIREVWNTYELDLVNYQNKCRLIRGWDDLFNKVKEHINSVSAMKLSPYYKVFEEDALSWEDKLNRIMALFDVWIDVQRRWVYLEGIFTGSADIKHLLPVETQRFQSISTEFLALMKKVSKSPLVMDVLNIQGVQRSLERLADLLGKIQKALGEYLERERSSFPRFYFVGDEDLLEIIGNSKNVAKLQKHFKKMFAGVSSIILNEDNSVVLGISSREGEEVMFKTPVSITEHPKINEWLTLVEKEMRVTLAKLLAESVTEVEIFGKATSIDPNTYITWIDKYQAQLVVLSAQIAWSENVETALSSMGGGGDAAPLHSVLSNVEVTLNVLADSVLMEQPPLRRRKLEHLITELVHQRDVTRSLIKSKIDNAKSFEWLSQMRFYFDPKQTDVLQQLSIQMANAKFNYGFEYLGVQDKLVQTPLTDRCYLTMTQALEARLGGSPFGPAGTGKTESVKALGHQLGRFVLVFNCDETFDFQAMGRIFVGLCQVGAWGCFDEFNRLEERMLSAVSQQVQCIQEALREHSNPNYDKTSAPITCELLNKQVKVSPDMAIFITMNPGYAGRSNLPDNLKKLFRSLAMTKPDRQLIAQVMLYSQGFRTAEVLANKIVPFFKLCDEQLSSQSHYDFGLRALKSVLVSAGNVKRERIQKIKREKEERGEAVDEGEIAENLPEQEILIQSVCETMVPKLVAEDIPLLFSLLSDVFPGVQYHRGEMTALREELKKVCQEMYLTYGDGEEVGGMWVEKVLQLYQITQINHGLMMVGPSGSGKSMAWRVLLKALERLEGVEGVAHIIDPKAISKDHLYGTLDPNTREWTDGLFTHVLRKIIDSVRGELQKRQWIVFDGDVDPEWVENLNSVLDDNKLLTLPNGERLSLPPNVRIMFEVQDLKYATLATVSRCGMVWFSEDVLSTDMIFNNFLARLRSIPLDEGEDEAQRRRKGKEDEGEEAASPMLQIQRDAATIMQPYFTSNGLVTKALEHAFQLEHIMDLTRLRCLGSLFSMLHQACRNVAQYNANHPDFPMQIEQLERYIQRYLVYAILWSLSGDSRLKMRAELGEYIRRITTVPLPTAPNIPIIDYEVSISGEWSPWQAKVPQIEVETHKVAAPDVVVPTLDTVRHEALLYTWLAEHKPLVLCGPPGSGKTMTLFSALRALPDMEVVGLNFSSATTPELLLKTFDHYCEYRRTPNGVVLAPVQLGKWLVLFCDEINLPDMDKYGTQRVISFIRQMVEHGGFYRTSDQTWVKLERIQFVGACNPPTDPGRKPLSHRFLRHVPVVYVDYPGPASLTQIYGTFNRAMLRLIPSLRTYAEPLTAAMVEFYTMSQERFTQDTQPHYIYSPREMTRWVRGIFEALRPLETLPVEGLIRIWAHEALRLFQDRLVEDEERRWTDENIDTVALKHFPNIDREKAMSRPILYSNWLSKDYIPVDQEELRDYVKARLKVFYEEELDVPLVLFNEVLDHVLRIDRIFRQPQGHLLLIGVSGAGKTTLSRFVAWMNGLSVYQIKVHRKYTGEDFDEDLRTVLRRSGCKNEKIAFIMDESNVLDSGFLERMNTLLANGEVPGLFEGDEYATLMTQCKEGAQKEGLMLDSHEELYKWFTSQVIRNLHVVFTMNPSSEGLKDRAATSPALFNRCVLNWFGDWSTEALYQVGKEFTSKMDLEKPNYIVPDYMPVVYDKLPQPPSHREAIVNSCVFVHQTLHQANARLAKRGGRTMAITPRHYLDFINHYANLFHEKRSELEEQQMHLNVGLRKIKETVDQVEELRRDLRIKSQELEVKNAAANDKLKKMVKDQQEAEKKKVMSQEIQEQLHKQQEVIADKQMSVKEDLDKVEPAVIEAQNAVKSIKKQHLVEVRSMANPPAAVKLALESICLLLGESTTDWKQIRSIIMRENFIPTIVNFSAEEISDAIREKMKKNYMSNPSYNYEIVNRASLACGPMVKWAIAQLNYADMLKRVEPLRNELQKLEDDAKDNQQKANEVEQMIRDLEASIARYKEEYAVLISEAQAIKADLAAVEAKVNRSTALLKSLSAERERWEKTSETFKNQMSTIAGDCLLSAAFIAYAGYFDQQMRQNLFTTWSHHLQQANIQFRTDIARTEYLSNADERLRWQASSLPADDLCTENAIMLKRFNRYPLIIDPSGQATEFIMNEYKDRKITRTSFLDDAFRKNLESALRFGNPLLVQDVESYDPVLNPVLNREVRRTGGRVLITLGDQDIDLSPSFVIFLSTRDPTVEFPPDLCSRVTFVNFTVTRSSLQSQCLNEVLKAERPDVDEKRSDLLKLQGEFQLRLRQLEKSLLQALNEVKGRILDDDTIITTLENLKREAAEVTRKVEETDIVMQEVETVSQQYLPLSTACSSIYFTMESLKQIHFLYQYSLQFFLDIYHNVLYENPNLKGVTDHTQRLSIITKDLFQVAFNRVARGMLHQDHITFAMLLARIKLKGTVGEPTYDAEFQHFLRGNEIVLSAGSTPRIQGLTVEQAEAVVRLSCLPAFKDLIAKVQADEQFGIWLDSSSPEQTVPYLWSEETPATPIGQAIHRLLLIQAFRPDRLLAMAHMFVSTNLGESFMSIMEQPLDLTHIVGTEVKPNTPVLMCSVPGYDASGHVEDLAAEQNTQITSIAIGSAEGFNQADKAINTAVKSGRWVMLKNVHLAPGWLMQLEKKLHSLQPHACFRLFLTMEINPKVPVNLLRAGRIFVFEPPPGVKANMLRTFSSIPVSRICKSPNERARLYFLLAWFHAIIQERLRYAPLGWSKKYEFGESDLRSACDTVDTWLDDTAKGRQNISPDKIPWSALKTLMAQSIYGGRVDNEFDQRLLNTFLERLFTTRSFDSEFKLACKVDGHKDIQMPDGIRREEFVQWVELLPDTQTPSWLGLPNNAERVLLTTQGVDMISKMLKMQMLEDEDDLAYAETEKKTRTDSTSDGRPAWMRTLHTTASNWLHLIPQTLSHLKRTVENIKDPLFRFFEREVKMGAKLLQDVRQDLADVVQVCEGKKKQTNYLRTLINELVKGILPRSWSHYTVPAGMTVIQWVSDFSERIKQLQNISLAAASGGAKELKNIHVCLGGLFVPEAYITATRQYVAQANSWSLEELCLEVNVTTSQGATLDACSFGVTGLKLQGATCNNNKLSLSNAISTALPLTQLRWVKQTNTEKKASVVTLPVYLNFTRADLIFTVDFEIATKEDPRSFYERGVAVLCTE
UniProt Q9NP97: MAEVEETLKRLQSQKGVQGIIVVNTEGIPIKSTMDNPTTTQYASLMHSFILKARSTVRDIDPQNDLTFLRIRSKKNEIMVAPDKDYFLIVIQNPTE

Target: Strep/FLAG-tagged (SF-TAP) NINL isoform B (human) (UniProt Q9Y2I6)
Assay: affinity purification with mass spectrometry; N-terminally SF-TAP-tagged NINL transiently expressed in HEK293T; one-step Strep-Tactin purification with SILAC, and tandem affinity purification (TAP); lysis in 0.5% Nonidet-P40 in TBS (30 mM Tris-HCl pH 7.4, 150 mM NaCl); LC-MS/MS

| Substance | binding |
| --- | --- |
| ARP1 (from UniProt P61163 1-376) | binds |
| ARP1B (from UniProt P42025 1-376) | binds |
| ARP10 (from UniProt Q9NZ32 1-417) | binds |
| CAMK2A (from UniProt Q9UQM7 1-478) | binds |
| CAMK2D (from UniProt Q13557 1-499) | binds |
| CAMK2G (from UniProt Q13555 1-558) | binds |
| CAPZB (from UniProt P47756 1-272) | binds |
| DCTN1 (from UniProt Q14203 1-1278) | binds |
| DCTN2 (from UniProt Q13561 1-401) | binds |
| DCTN3 (from UniProt O75935 1-186) | binds |
| DCTN4 (from UniProt Q9UJW0 1-460) | binds |
| DCTN6 (from UniProt O00399 1-190) | binds |
| DYNC1H1 (from UniProt Q14204 1-4646) | binds |
| DYNC1LI1 (from UniProt Q9Y6G9 1-523) | binds |
| DYNC1LI2 (from UniProt O43237 1-492) | binds |
| DYNCI2 (from UniProt Q13409 1-638) | binds |
| DYNLRB1 (from UniProt Q9NP97 1-96) | binds |
| MICAL3 (Microtubule-associated Monooxygenase, Calponin and LIM domain containing 3 protein) (from UniProt Q7RTP6 1-2002) | binds |
